The chains behind the UniProt entries cited, without tags or fusion partners.
UniProt Q15365: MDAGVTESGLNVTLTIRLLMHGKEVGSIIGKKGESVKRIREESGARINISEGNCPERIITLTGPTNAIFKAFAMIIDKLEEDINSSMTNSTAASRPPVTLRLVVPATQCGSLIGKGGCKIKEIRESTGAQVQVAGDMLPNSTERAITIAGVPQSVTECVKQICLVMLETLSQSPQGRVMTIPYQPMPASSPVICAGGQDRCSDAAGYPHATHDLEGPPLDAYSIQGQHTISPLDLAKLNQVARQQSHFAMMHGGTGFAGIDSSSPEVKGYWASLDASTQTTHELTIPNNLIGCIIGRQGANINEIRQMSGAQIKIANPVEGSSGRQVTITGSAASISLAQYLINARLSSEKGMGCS
UniProt P55010: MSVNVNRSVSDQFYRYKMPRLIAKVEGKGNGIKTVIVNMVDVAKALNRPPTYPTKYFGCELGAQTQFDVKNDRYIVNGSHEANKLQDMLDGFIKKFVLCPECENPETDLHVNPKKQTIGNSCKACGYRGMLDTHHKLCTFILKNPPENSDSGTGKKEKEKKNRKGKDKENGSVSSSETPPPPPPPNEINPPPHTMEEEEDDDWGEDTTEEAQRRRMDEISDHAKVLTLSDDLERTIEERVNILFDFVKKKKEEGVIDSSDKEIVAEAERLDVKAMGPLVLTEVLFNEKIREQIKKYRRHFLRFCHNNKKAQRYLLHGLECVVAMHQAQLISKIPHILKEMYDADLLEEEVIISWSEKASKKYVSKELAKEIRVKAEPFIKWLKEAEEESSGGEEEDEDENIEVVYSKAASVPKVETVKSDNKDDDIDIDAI
UniProt P07737: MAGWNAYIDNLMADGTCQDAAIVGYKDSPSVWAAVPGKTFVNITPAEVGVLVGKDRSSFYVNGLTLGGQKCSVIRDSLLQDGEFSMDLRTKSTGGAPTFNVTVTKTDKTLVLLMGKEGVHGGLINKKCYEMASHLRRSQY
UniProt P17844: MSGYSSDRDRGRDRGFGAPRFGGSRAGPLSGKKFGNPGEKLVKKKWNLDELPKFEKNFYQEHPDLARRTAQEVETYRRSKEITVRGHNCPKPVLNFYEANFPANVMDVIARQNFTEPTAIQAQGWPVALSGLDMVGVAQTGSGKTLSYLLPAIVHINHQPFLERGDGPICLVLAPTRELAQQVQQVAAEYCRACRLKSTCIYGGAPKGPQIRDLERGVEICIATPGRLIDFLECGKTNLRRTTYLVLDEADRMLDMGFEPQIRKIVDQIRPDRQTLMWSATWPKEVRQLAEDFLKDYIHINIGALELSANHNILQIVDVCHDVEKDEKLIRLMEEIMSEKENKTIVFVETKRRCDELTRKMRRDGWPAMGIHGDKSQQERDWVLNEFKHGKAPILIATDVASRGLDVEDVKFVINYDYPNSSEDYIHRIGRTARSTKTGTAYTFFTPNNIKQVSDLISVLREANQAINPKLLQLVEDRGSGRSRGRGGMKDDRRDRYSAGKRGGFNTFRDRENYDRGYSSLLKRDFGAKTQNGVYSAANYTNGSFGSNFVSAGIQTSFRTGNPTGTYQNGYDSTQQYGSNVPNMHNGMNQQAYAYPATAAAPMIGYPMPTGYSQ
UniProt Q07955: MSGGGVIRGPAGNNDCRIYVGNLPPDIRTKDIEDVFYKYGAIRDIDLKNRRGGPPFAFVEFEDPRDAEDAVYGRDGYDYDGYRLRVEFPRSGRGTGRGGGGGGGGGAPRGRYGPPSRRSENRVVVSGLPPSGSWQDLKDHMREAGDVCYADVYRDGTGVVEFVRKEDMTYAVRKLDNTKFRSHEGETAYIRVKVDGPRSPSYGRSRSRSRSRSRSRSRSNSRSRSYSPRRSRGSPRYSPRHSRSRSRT
UniProt Q14157: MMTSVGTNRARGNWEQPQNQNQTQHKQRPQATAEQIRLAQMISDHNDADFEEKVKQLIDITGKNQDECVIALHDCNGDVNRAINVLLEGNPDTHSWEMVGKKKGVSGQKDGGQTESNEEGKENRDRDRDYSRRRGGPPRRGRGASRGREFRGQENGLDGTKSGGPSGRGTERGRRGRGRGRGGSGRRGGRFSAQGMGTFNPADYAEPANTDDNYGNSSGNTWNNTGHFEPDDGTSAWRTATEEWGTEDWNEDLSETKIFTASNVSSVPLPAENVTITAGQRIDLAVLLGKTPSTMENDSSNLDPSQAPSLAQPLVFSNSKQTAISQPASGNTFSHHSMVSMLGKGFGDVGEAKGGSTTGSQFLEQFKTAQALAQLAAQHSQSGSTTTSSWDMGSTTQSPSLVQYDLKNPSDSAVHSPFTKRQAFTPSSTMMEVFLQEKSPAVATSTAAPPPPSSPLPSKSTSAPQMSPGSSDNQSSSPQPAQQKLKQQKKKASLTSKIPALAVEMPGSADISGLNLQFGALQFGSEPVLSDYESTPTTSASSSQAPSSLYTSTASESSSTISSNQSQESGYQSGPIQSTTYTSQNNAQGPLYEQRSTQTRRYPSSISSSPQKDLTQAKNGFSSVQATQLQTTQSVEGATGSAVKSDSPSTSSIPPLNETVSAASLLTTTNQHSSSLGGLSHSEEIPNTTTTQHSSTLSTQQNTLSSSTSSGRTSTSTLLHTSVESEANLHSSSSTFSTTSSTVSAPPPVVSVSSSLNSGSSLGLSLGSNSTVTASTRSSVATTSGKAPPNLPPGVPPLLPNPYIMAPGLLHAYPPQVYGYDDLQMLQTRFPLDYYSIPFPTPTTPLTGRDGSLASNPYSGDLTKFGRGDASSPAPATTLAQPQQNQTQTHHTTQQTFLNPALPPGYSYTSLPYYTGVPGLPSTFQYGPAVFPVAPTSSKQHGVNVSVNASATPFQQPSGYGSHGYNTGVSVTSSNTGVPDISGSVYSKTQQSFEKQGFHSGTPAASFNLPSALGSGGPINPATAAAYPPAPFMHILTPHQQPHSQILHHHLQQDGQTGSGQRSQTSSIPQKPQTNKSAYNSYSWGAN
UniProt Q9UBQ5: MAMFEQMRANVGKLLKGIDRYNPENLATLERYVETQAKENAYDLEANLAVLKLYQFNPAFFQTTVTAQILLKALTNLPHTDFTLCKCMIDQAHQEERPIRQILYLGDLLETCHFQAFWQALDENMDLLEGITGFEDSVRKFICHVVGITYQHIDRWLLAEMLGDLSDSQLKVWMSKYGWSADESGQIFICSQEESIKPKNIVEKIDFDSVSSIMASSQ
UniProt A5YKK6: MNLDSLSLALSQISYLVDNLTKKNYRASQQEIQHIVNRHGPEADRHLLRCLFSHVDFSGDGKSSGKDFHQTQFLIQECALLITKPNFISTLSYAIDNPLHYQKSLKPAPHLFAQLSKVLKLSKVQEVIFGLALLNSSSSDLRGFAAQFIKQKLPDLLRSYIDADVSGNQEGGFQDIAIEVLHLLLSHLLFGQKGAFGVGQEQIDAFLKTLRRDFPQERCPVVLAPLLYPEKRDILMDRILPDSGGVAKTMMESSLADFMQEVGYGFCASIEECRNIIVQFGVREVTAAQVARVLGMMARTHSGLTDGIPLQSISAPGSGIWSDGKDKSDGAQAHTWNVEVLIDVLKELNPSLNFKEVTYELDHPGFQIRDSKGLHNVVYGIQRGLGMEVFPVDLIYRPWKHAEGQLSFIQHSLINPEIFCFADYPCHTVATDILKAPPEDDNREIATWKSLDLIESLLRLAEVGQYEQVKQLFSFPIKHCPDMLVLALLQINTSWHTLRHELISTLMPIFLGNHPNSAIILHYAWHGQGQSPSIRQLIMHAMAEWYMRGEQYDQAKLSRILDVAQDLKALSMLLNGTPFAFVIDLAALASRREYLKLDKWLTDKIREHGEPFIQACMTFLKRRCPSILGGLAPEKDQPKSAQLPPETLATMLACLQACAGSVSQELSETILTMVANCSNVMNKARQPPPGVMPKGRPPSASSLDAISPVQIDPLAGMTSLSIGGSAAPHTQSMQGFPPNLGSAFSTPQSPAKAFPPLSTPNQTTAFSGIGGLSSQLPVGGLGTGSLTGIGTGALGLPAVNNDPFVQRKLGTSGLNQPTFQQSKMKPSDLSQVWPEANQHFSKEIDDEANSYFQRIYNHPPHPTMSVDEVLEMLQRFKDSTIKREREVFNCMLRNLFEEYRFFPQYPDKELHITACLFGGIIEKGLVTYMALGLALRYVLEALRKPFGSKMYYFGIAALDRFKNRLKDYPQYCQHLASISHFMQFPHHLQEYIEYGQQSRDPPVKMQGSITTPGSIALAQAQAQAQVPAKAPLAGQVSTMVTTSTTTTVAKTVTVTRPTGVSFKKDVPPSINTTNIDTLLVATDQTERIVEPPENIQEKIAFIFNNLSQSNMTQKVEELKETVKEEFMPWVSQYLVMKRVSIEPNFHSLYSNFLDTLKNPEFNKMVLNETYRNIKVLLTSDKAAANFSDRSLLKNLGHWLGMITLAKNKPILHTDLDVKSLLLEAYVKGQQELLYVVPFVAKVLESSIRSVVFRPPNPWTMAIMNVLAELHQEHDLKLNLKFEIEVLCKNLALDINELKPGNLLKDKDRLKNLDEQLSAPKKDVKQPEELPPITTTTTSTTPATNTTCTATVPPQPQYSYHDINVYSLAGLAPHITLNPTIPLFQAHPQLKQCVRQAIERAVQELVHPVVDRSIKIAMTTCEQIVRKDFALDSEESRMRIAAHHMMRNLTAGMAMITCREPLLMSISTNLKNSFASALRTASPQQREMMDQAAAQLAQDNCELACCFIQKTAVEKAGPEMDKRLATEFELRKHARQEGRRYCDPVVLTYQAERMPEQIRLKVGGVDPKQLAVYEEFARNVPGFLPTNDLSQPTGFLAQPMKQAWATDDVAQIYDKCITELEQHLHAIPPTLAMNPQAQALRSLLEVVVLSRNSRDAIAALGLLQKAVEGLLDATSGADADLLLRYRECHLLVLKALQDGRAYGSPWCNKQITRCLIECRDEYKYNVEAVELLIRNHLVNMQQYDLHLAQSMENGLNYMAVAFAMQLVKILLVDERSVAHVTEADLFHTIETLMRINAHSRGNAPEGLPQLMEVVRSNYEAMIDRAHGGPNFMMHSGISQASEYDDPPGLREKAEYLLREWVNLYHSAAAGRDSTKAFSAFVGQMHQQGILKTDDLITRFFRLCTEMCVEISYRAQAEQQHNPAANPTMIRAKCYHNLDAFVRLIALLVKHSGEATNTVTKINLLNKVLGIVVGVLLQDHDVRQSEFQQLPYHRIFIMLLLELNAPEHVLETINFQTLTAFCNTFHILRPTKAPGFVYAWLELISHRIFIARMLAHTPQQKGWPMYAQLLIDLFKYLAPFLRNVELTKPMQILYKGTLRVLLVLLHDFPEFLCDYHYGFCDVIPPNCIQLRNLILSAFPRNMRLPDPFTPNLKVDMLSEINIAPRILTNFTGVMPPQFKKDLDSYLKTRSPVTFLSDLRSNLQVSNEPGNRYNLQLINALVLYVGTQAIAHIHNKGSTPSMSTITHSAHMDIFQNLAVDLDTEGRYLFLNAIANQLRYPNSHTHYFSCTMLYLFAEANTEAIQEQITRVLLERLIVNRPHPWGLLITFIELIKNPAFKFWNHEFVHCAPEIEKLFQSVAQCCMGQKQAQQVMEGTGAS
UniProt P62879: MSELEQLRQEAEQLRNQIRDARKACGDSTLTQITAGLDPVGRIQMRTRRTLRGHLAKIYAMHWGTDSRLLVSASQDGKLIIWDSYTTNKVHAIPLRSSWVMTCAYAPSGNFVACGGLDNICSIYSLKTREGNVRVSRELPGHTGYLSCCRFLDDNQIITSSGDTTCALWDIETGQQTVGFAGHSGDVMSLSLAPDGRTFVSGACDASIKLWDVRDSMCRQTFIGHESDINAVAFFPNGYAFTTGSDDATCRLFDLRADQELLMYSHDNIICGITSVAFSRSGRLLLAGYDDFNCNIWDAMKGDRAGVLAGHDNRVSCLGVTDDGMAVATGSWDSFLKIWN
UniProt O75821: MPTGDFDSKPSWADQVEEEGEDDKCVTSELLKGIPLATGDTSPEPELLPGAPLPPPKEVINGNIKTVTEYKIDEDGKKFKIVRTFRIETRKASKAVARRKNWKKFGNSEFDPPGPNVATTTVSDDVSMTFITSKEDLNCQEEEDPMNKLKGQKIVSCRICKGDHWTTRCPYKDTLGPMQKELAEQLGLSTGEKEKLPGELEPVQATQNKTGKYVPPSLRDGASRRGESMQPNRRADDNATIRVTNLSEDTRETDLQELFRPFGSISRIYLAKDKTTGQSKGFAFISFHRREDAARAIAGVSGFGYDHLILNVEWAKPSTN

According to paper PMC7337521:

Assays:
[1] = target: G3BP1-APEX fusion protein (UniProt Q13283); test: proximity labelling; G3BP1-APEX transiently expressed in PC-3 cells, vehicle or arsenite (200 uM, 2 h); biotin-tyramide 500 uM 30 min and H2O2 1 mM 1 min; biotinylated proteins pulled down with Dynabeads M-280 Streptavidin; Western blot
[2] = target: G3BP1-APEX fusion protein (UniProt Q13283); test: proximity labelling; G3BP1-APEX (heavy SILAC) against CTRL-APEX (light SILAC) in PC-3 cells, vehicle or arsenite (200 uM, 2 h); biotin tagging, streptavidin pulldown, LC-MS/MS (Orbitrap); triplicates

Row | Substance | binding [1] | binding [2]
1 | PABC1 (from UniProt P11940 1-636) | binds | –
2 | DDX3X (from UniProt O00571 1-662) | – | binds
3 | PCBP1 (from UniProt Q15365 1-356) | – | binds
4 | EIF5 (from UniProt P55010 1-431) | – | binds
5 | VCP (from UniProt P55072 1-806) | – | binds
6 | PFN1 (from UniProt P07737 1-140) | – | binds
7 | DDX5 (from UniProt P17844 1-614) | – | binds
8 | SRSF1 (from UniProt Q07955 1-248) | – | binds
9 | UBAP2L (from UniProt Q14157 1-1087) | – | binds
10 | SND1 (from UniProt Q7KZF4 1-910) | – | binds
11 | EIF3K (from UniProt Q9UBQ5 1-218) | – | binds
12 | EIF4H (from UniProt Q15056 1-248) | – | binds
13 | YTHDF3 (from UniProt Q7Z739 1-585) | – | binds
14 | CNOT1 (from UniProt A5YKK6 1-2376) | – | binds
15 | GNB2 (from UniProt P62879 1-340) | – | binds
16 | eIF4G1 (from UniProt Q04637 1-1599) | binds | binds
17 | EIF3G (from UniProt O75821 1-320) | – | binds
18 | IGF2BP2 (from UniProt Q9Y6M1 1-599) | – | binds
19 | HNRNPK (from UniProt P61978 1-463) | – | binds

Results are given in words; binding and its absence hold for the method and conditions named. In cells and extracts the contact can be indirect. These calls come from enrichment with a bait or labelling near it, and not all partners need be listed.
